# Reference: the supplement of paper PMC8728848
# Some of the results follow.
# B1: XTP3-B-MRH2 (Homo sapiens), Q96DZ1 (protein)
# chain: EFLSGSYCFRGGVGWWKYEFCYGKHVHQYHEDKDSGKTSVVVGTWNQEEHIEWAKKNTARAYHLQDDGTQTVRMVSHFYGNGDICDITDKPRQVTVKLKCKESDSPHAVTVYMLEPHSCQYILGVESPVICKILDTA
# Tests used:
# Test in all cases: glycan array binding signal (z-score within array); higher = stronger binding
# Settings in all cases: glycan notation: IUPAC condensed, linker removed
# [1] = biological target: Neu5Ac(a2-8)Neu5Ac
# Procedure, shortened: (§1)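 Glycan array data came from 3228 arrays in the Consortium for Functional Glycomics database, and only arrays with an available protein sequence were kept. Glycan names were put into IUPAC-condensed notation, and columns mapping to the same glycan were averaged. The binding signal is a within-array Z-score, averaged across arrays of one protein sequence run at different concentrations or buffers and across linkers. A negative Z-score can be read as non-binding.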
# [2] = biological target: Neu5Ac(a2-8)Neu5Ac(a2-3)Gal(b1-3)GalNAc(b1-4)[Neu5Ac(a2-3)]Gal(b1-4)Glc
# Procedure, shortened: as §1
# [3] = biological target: Neu5Ac(a2-8)Neu5Ac(a2-3)Gal(b1-3)GalNAc(b1-4)[Neu5Ac(a2-8)Neu5Ac(a2-3)]Gal(b1-4)Glc
# Procedure, shortened: as §1
# [4] = biological target: Neu5Ac(a2-8)Neu5Ac(a2-3)Gal(b1-4)Glc
# Procedure, shortened: as §1
# [5] = biological target: Neu5Ac(a2-8)Neu5Ac(a2-3)Gal(b1-4)GlcNAc
# Procedure, shortened: as §1
# [6] = biological target: Neu5Ac(a2-8)Neu5Ac(a2-3)[Gal(b1-3)GalNAc(b1-4)]Gal(b1-4)Glc
# Procedure, shortened: as §1
# [7] = biological target: Neu5Ac(a2-8)Neu5Ac(a2-3)[GalNAc(b1-4)]Gal(b1-4)Glc
# Procedure, shortened: as §1
# [8] = biological target: Neu5Ac(a2-8)Neu5Ac(a2-8)Neu5Ac
# Procedure, shortened: as §1
# [9] = biological target: Neu5Ac(a2-8)Neu5Ac(a2-8)Neu5Ac(a2-3)Gal(b1-4)Glc
# Procedure, shortened: as §1
# [10] = biological target: Neu5Ac(a2-8)Neu5Ac(a2-8)Neu5Ac(a2-3)[Gal(b1-3)GalNAc(b1-4)]Gal(b1-4)Glc
# Procedure, shortened: as §1
# [11] = biological target: Neu5Ac(a2-8)Neu5Ac(a2-8)Neu5Ac(a2-3)[GalNAc(b1-4)]Gal(b1-4)Glc
# Procedure, shortened: as §1
# [12] = biological target: Neu5Ac(a2-8)Neu5Ac(a2-8)Neu5Ac(a2-8)Neu5Ac(a2-3)[GalNAc(b1-4)]Gal(b1-4)Glc
# Procedure, shortened: as §1
# [13] = biological target: Neu5Ac(a2-8)Neu5Gc(a2-3)Gal(b1-4)GlcNAc
# Procedure, shortened: as §1
# [14] = biological target: Neu5Ac(b2-6)Gal(b1-4)GlcNAc
# Procedure, shortened: as §1
# [15] = biological target: Neu5Ac(b2-6)GalNAc
# Procedure, shortened: as §1
# [16] = biological target: Neu5Ac9Ac(a2-3)Gal(b1-3)GlcNAc
# Procedure, shortened: as §1
# [17] = biological target: Neu5Ac9Ac(a2-3)Gal(b1-4)GlcNAc
# Procedure, shortened: as §1
# [18] = biological target: Neu5Ac9Ac(a2-6)Gal(b1-4)GlcNAc
# Procedure, shortened: as §1
# [19] = biological target: Neu5Gc(a2-3)Gal(b1-3)GlcNAc
# Procedure, shortened: as §1
# [20] = biological target: Neu5Gc(a2-3)Gal(b1-3)[Fuc(a1-4)]GlcNAc
# Procedure, shortened: as §1
# [21] = biological target: Neu5Gc(a2-3)Gal(b1-4)Glc
# Procedure, shortened: as §1
# [22] = biological target: Neu5Gc(a2-3)Gal(b1-4)GlcNAc
# Procedure, shortened: as §1
# [23] = biological target: Neu5Gc(a2-3)Gal(b1-4)GlcNAc(b1-3)Gal(b1-4)GlcNAc(b1-2)Man(a1-3)[Neu5Gc(a2-3)Gal(b1-4)GlcNAc(b1-3)Gal(b1-4)GlcNAc(b1-2)Man(a1-6)]Man(b1-4)GlcNAc(b1-4)GlcNAc
# Procedure, shortened: as §1
# [24] = biological target: Neu5Gc(a2-3)Gal(b1-4)[Fuc(a1-3)]GlcNAc
# Procedure, shortened: as §1
# [25] = biological target: Neu5Gc(a2-6)Gal(b1-4)GlcNAc
# Procedure, shortened: as §1
# [26] = biological target: Neu5Gc(a2-6)GalNAc
# Procedure, shortened: as §1
# [27] = biological target: Neu5Gc(a2-8)Neu5Ac(a2-3)Gal(b1-4)GlcNAc
# Procedure, shortened: as §1
# [28] = biological target: Neu5Gc(a2-8)Neu5Gc(a2-3)Gal(b1-4)GlcNAc
# Procedure, shortened: as §1
# [29] = biological target: Neu5Gc(a2-8)Neu5Gc(a2-3)Gal(b1-4)GlcNAc(b1-3)Gal(b1-4)GlcNAc
# Procedure, shortened: as §1
# [30] = biological target: Neu5Gc(a2-8)Neu5Gc(a2-6)Gal(b1-4)GlcNAc
# Procedure, shortened: as §1
# [31] = biological target: Neu5Gc(b2-6)Gal(b1-4)GlcNAc
# Procedure, shortened: as §1
binder,measurement,setting,value
B1,glycan array binding signal (z-score),[1],0.01
same,glycan array binding signal (z-score),[2],0.953
same,glycan array binding signal (z-score),[3],-0.5
same,glycan array binding signal (z-score),[4],-1.04
same,glycan array binding signal (z-score),[5],0.479
same,glycan array binding signal (z-score),[6],-0.878
same,glycan array binding signal (z-score),[7],0.834
same,glycan array binding signal (z-score),[8],0.237
same,glycan array binding signal (z-score),[9],-0.439
same,glycan array binding signal (z-score),[10],2.07
same,glycan array binding signal (z-score),[11],1.37
same,glycan array binding signal (z-score),[12],1.99
same,glycan array binding signal (z-score),[13],-0.171
same,glycan array binding signal (z-score),[14],0.4
same,glycan array binding signal (z-score),[15],-0.746
same,glycan array binding signal (z-score),[16],-0.138
same,glycan array binding signal (z-score),[17],-0.6
same,glycan array binding signal (z-score),[18],0.258
same,glycan array binding signal (z-score),[19],-1.19
same,glycan array binding signal (z-score),[20],-0.235
same,glycan array binding signal (z-score),[21],0.132
same,glycan array binding signal (z-score),[22],0.003
same,glycan array binding signal (z-score),[23],-0.501
same,glycan array binding signal (z-score),[24],1.08
same,glycan array binding signal (z-score),[25],-0.292
same,glycan array binding signal (z-score),[26],-1.02
same,glycan array binding signal (z-score),[27],0.283
same,glycan array binding signal (z-score),[28],2.85
same,glycan array binding signal (z-score),[29],1.33
same,glycan array binding signal (z-score),[30],-1.01
same,glycan array binding signal (z-score),[31],1.3

# 2 records drawn at random from those above:
binder,measurement,setting,value
B1,glycan array binding signal (z-score),[11],1.37
same,glycan array binding signal (z-score),[26],-1.02
